This assay concerns the target T1, GFP-WRNIP1 (UniProt Q96S55).
T1 sequence: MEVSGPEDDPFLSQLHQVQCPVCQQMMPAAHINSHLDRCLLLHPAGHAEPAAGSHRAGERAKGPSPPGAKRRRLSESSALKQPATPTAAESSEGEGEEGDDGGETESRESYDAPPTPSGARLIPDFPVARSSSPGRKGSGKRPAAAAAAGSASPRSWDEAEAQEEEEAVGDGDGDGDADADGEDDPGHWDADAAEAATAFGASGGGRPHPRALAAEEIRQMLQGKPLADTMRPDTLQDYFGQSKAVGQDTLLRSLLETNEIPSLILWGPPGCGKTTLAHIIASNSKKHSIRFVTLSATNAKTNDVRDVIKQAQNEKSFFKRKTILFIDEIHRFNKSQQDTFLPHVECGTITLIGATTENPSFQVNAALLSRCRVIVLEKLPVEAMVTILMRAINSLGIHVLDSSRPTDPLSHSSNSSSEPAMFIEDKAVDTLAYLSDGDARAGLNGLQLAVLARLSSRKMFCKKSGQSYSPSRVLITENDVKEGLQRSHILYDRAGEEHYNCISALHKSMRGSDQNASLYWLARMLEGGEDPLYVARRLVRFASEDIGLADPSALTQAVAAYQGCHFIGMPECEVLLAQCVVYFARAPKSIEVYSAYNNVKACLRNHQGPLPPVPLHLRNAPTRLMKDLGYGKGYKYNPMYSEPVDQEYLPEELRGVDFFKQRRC
Description: co-IP; HEK293T transfected with GFP-tagged proteins for 24 h, lysis in JS buffer with Benzonase, GFP-trap magnetic agarose beads 1 h at 4 °C, western blotting. A general note: Immunoblotting shows a protein as a band on a membrane.

Protein sequences, listed by entry. Tags and fused reporters are not part of them.
UniProt Q9UM54: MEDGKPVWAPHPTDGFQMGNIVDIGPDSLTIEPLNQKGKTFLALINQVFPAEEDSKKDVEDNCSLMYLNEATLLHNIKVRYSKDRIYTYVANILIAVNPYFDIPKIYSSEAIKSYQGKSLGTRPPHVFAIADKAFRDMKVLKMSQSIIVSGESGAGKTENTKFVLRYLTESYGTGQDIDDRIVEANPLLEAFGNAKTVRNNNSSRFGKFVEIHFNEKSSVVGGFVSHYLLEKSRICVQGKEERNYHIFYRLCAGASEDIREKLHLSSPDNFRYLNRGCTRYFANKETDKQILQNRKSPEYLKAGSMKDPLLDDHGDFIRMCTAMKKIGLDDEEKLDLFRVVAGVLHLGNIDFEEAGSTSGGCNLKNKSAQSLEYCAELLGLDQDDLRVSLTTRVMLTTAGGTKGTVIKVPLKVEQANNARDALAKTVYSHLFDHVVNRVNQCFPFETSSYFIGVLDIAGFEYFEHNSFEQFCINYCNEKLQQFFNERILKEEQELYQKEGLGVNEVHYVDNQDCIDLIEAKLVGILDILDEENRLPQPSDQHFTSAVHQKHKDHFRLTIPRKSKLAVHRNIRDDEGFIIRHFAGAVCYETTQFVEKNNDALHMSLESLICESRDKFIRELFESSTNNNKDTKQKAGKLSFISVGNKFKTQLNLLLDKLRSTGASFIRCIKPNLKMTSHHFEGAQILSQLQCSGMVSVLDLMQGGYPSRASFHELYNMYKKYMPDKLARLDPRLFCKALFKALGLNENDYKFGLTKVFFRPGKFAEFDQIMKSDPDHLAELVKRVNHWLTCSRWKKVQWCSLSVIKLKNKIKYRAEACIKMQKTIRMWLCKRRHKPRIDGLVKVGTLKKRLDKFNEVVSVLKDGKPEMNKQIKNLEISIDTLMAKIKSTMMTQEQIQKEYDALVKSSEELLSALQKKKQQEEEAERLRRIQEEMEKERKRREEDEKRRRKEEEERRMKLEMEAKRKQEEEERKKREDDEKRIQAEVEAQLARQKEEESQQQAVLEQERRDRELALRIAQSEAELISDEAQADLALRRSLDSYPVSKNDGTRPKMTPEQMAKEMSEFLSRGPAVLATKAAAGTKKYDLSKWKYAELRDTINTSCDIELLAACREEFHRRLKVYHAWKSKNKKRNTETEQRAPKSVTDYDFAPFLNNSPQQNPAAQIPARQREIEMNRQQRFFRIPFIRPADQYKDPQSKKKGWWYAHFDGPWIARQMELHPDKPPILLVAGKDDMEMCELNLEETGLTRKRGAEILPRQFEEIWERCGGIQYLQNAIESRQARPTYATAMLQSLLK

These are yes or no findings as the source states them, for the method shown. Binding seen in cells or lysates may run through a third protein. Some entries that bind do so weakly or less than the wild type. Tags and fused reporters may be left off the sequences shown.

For the substance “myosin VI, endogenous in HEK293T (from UniProt Q9UM54 1-1294)”, the binding result is reported as “binds”.
